Source: PubChem BioAssay AID1259308 (NCATS, 2017)
The whole screen tested about 59,000 reagents; shown is a random part of them. About 1,510 of them (2.6%) were called active. 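Calls use total luciferase alone and ignore viability, so some active siRNAs may act by altering cell number.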 Reagents against one gene are numbered here.

- Test: 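Genes whose loss raises luciferase production in HEK293 cells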 (primary screen)
- Cell system: human HEK293 embryonic kidney cells stably expressing firefly luciferase (HEK-CMV-Luc2-Hygro)
- Reagent: single siRNA against human genes, 0.8 pmol siRNA per well
- Timing: 72 h
- Measurement: 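Luciferase light (ONE-Glo) measured on one replicate plate set and viability (CellTiter-Glo) on the other, scaled to a negative control siRNA, with robust z-scores and luciferase per cell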
- Reading the numbers: total luciferase, z-score and total luciferase, % of control: higher = more reporter protein produced; luciferase per cell, z-score: higher = more reporter output per viable cell; viable cells, % of control: higher = more viable cells
- Call rule: 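An siRNA counts as active if its total luciferase robust z-score exceeds 3; genes with two or more such siRNAs out of three were retested with fresh siRNAs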
- Calls: active = raised luciferase; inactive = no rise

The opening 7 records, to show the layout:
gene | siRNA no. | total luciferase, z-score | total luciferase, % of control | luciferase per cell, z-score | viable cells, % of control | Outcome
ZDHHC12 | 1 | 0.0643 | 83.2 | -0.0296 | 93.7 | inactive
ZDHHC12 | 2 | 1.16 | 105 | 0.64 | 99.1 | inactive
ZDHHC12 | 3 | -0.126 | 79.4 | -0.177 | 92.9 | inactive
PCP4 | 1 | 0.373 | 89.3 | 2.43 | 52.6 | inactive
PCP4 | 2 | 1.77 | 117 | 1.88 | 79.8 | inactive
PCP4 | 3 | -1.62 | 49.7 | -1.94 | 92.5 | inactive
FAM204A | 1 | 0.171 | 85.3 | 0.682 | 79.6 | inactive

Results, repeating the preview:
gene | siRNA no. | total luciferase, z-score | total luciferase, % of control | luciferase per cell, z-score | viable cells, % of control | Outcome
ZDHHC12 | 1 | 0.0643 | 83.2 | -0.0296 | 93.7 | inactive
ZDHHC12 | 2 | 1.16 | 105 | 0.64 | 99.1 | inactive
ZDHHC12 | 3 | -0.126 | 79.4 | -0.177 | 92.9 | inactive
PCP4 | 1 | 0.373 | 89.3 | 2.43 | 52.6 | inactive
PCP4 | 2 | 1.77 | 117 | 1.88 | 79.8 | inactive
PCP4 | 3 | -1.62 | 49.7 | -1.94 | 92.5 | inactive
FAM204A | 1 | 0.171 | 85.3 | 0.682 | 79.6 | inactive
FAM204A | 2 | 0.31 | 88 | -0.178 | 103 | inactive
FAM204A | 3 | -0.567 | 70.6 | -0.55 | 91.2 | inactive
BRSK1 | 1 | 0.848 | 98.7 | 0.873 | 87.7 | inactive
BRSK1 | 2 | 2.04 | 123 | 1.77 | 85.9 | inactive
BRSK1 | 3 | -1 | 61.9 | -1.32 | 97.9 | inactive
DEFB113 | 1 | 0.538 | 92.6 | 0.406 | 93 | inactive
DEFB113 | 2 | 0.0819 | 83.5 | 1.07 | 70.3 | inactive
DEFB113 | 3 | 3.81 | 158 | 3.34 | 73.1 | active
CDK6 | 1 | -0.719 | 67.6 | -1.3 | 106 | inactive
CDK6 | 2 | 4.37 | 169 | 2.95 | 86.7 | active
CDK6 | 3 | 0.0693 | 83.3 | -0.25 | 99.4 | inactive
STC2 | 1 | -0.373 | 74.5 | 0.311 | 76.7 | inactive
STC2 | 2 | 4.23 | 166 | 2.62 | 93 | active
STC2 | 3 | -0.601 | 69.9 | -1.23 | 108 | inactive
DAND5 | 1 | -0.982 | 62.3 | -0.3 | 75.4 | inactive
DAND5 | 2 | -0.116 | 79.6 | -0.316 | 96.7 | inactive
DAND5 | 3 | 1.84 | 119 | 2.57 | 67.3 | inactive
CD74 | 1 | 0.61 | 94 | 2.34 | 56.8 | inactive
CD74 | 2 | 0.569 | 93.2 | 0.81 | 84.1 | inactive
CD74 | 3 | -0.598 | 70 | 0.241 | 73.4 | inactive
MAGI2 | 1 | 1.55 | 113 | 2.72 | 61.4 | inactive
MAGI2 | 2 | 1.38 | 109 | 0.165 | 117 | inactive
MAGI2 | 3 | 0.606 | 93.9 | 0.295 | 97.1 | inactive
CHCHD2 | 1 | 0.406 | 90 | -0.284 | 108 | inactive
CHCHD2 | 2 | 0.793 | 97.7 | 0.0519 | 108 | inactive
CHCHD2 | 3 | -2.86 | 25.1 | -4.23 | 85.4 | inactive
AP4S1 | 1 | 2.18 | 125 | 1.65 | 90.8 | inactive
AP4S1 | 2 | -0.392 | 74.1 | 0.0132 | 82.5 | inactive
AP4S1 | 3 | 2.64 | 134 | 1.89 | 91.4 | inactive
IL1RAP | 1 | -0.5 | 71.9 | -1.12 | 108 | inactive
IL1RAP | 2 | -0.0691 | 80.5 | -0.493 | 102 | inactive
IL1RAP | 3 | 1.01 | 102 | 1.35 | 79.8 | inactive
SNUPN | 1 | 0.172 | 85.3 | -0.0629 | 96.9 | inactive
SNUPN | 2 | -0.751 | 67 | -0.326 | 81.5 | inactive
SNUPN | 3 | -0.935 | 63.3 | -1.2 | 97.1 | inactive
PLBD2 | 1 | 0.279 | 87.4 | -0.652 | 116 | inactive
PLBD2 | 2 | -1.41 | 53.9 | -1.26 | 83.9 | inactive
PLBD2 | 3 | -0.186 | 78.2 | -0.405 | 97.2 | inactive
CALML5 | 1 | -1.53 | 51.5 | -1.3 | 81.2 | inactive
CALML5 | 2 | 0.326 | 88.4 | 0.756 | 80.9 | inactive
CALML5 | 3 | 0.465 | 91.1 | 0.528 | 88.6 | inactive
RBM14 | 1 | 1.78 | 117 | 1.37 | 91.3 | inactive
RBM14 | 2 | -0.0326 | 81.2 | 0.0383 | 89.9 | inactive
RBM14 | 3 | 1.19 | 106 | 1.41 | 81.3 | inactive
PSMB2 | 1 | 0.855 | 98.9 | 1.29 | 78.7 | inactive
PSMB2 | 2 | 0.521 | 92.3 | 0.457 | 91.4 | inactive
PSMB2 | 3 | 0.795 | 97.7 | 2.27 | 60 | inactive
STOX2 | 1 | 0.668 | 95.2 | 0.247 | 99.7 | inactive
STOX2 | 2 | 0.836 | 98.5 | 0.363 | 100 | inactive
STOX2 | 3 | 1.62 | 114 | 1.26 | 91.4 | inactive
LOC729040 (retired record) | 1 | -0.0232 | 81.4 | -0.44 | 102 | inactive
LOC729040 (retired record) | 2 | -0.708 | 67.8 | -0.728 | 91.8 | inactive
LOC729040 (retired record) | 3 | -1.05 | 60.9 | -0.488 | 77.4 | inactive
CLN5 | 1 | 1.23 | 106 | 0.492 | 104 | inactive
CLN5 | 2 | 0.405 | 90 | -0.0636 | 102 | inactive
CLN5 | 3 | 0.324 | 88.3 | -0.235 | 105 | inactive
ECSIT | 1 | 0.433 | 90.5 | 0.773 | 82.5 | inactive
ECSIT | 2 | -0.347 | 75 | -0.827 | 104 | inactive
ECSIT | 3 | -1.32 | 55.6 | -1.9 | 102 | inactive
APEX1 | 1 | -0.441 | 73.1 | -0.692 | 98 | inactive
APEX1 | 2 | -2.38 | 34.6 | -1.92 | 64.1 | inactive
APEX1 | 3 | 1.33 | 108 | 0.633 | 102 | inactive
LINC02870 | 1 | -0.182 | 78.3 | -0.408 | 97.4 | inactive
LINC02870 | 2 | 6.69 | 215 | 4.17 | 80.1 | active
LINC02870 | 3 | 1.66 | 115 | 1.69 | 82.3 | inactive
ETV3L | 1 | -0.489 | 72.2 | -0.949 | 104 | inactive
ETV3L | 2 | -1.51 | 51.9 | -2.09 | 101 | inactive
ETV3L | 3 | 1.05 | 103 | 0.142 | 111 | inactive
